Data set [1] concerns nalidixic acid-resistant Salmonella typhimurium TA98 strain (nal^r). The experiment in a line: Mutagenicity, reverse mutation assay. An excerpt:
As for antibacterial agents, assessment of mutagenicity using bacteria is somewhat difficult because of their activity on the test bacteria.

A short description of data set [2]: in vivo. Conditions: mouse, iv.

SMILES strings stand for the structures. Marks after values point to notes of the source that are not given here.

With `O=C(O)c1cn(C2CC2)c2cc(N3CCNCC3)c(F)cc2c1=O` [CFLX, Ciprofloxacin], the “His^+ revertants per plate” value in data set [1] (0.05 µg/plate, S9-mix +) stood at 47; in data set [1] (0.05 µg/plate, S9-mix -) it was 28; in data set [1] (0.1 µg/plate, S9-mix +), 76; in data set [1] (0.1 µg/plate, S9-mix -) it was 44; in data set [1] (0.5 µg/plate, S9-mix +), 103; in data set [1] (0.5 µg/plate, S9-mix -), 47. Moreover, the “His^+ revertants per plate” value in data set [1] (1.0 µg/plate, S9-mix +) is listed as 30*; in data set [1] (1.0 µg/plate, S9-mix -), 55; in data set [1] (5.0 µg/plate, S9-mix +) it was 0*; in data set [1] (5.0 µg/plate, S9-mix -), 0*. Moreover, the “His revertant colonies compared with the solvent control” value in data set [1] (within measurable concentration, with and without the drug metabolic activation) was determined as 2 fold. In data set [2], this molecule had an LD50 of 231 mg/kg.
